Measured values reported in PubChem BioAssay AID1117319 (Southern Research Institute, 2015).
Several values for one entry are separate records, joined by “and”; a condition that tells them apart may be missing. Equal entries are not always repeated. Among all 260,000 compounds or so, about 1,500 (0.58%) were called active. Inconclusive results, whose numbers are uncertain, are shown with a selection of clear calls.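 How the source made its calls: active means inhibition above a set limit at one or more doses, reproduced on every date tested; inconclusive means results disagree between test dates, or hit never tested in dose response; inactive means the rest.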

By UniProt entry, the sequences of proteins in these tests, tags left out. Where a name states a change or a piece, a line headed by the entry shows the natural chain unless it says otherwise.
UniProt P69720: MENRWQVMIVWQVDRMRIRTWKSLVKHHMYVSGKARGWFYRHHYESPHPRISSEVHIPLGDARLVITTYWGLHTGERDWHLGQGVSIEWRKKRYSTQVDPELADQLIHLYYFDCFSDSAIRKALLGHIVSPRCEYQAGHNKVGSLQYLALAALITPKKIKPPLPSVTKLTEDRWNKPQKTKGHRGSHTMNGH
UniProt P69721: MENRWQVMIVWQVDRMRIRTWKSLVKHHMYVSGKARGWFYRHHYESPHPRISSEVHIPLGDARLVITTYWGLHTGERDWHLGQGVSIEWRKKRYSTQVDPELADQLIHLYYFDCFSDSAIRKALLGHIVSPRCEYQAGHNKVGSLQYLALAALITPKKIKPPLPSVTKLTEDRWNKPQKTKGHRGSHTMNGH
UniProt P69722: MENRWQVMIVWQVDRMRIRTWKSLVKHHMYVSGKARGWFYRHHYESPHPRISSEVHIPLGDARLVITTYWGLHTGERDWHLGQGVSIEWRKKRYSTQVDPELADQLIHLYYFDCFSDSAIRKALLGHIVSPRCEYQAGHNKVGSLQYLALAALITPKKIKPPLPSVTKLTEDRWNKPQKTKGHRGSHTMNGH
UniProt P69723: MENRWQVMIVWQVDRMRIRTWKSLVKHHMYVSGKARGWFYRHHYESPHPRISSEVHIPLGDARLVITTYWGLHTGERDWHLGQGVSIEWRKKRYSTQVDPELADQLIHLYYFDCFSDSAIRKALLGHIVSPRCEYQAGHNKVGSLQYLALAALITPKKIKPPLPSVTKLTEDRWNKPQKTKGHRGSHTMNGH
UniProt Q9HC16: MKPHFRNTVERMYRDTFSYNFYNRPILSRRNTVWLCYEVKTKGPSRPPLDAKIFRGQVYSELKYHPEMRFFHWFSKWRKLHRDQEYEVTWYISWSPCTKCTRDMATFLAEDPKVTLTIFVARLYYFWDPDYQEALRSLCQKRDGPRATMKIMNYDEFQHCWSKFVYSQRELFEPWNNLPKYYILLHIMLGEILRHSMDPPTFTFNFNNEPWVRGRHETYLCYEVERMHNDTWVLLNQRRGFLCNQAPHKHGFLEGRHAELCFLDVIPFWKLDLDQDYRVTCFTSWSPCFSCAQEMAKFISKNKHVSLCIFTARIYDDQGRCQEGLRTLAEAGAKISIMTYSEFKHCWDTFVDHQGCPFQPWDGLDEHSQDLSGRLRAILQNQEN

biological target: Virion infectivity factor (Human immunodeficiency virus type 1 group M subtype B (isolate BH10)) + Virion infectivity factor (Human immunodeficiency virus type 1 group M subtype B (isolate BRU/LAI)) + Virion infectivity factor (Human immunodeficiency virus type 1 group M subtype B (isolate PCV12)) + Virion infectivity factor (Human immunodeficiency virus type 1 group M subtype B (isolate HXB2)) + DNA dC->dU-editing enzyme APOBEC-3G (Homo sapiens) (UniProt P69720+P69721+P69722+P69723+Q9HC16); assay: inhibitors of Vif binding to APOBEC3G peptide, primary screen, biochemical, TR-FRET, GST-Vif 1-94, biotin-A3G peptide, dose response retest (AID 1117319); conditions: active compounds read high;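 further: Vif residues 1-94 fused to GST binding biotinylated APOBEC3G peptide 110-148; 0% = full assay without inhibitor and 100% = GST in place of GST-Vif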

Row | Structure (SMILES) | inhibition
1 | CN1CCC(NC(=O)Nc2cccc(C(F)(F)F)c2)CC1 | inconclusive: 34.5%
2 | CC1(C)Oc2ccc3ccc(=O)oc3c2C(N2CCCCC2)C1O (stereo not given) | inconclusive: 43%
3 | COC(=O)[C@H](CC(C)C)NC(=O)Nc1ccccc1F | inconclusive: 37.8%
4 | COC(=O)C1=C(C)N(Cc2ccc(C)cc2)C(=O)C1 | inconclusive: 54.9%
5 | O=C1c2cccc3cccc(c23)C(=O)N1c1ccncc1 | inconclusive: 37.2%
6 | Cc1ccc(C)c(/C(O)=C2\C(=O)C(=O)N(CCCn3ccnc3)C2c2cccnc2)c1 (stereo not given) | inconclusive: 42.4%
7 | Cn1c(=O)c2c(nc(N3CCCCCC3)n2CCSc2nc3ccccc3o2)n(C)c1=O | inconclusive: 51.4%
8 | CCc1ccc(OCC(=O)Nc2ccc(CN3CCCCC3)cc2)cc1 | inconclusive: 44.1%
9 | O=C(O)/C=C/c1cccc2c1OCCO2 | inconclusive: 52.1%
10 | c1ccc(-c2n[nH]c(-c3ccccn3)n2)nc1 | inconclusive: 51.9%
11 | Cc1ccc(C(=O)Nc2nc3nc(-c4ccccc4)cc(=O)n3[nH]2)cc1 | inconclusive: 56.7%
12 | Cc1nc(C)c(C(=O)NNS(=O)(=O)c2ccccc2)s1 | inconclusive: 42.2%
13 | CNC(=O)c1sc(-c2ccccc2)nc1C | inconclusive: 33.6%
14 | CC(C)Sc1oc(-c2ccco2)nc1S(=O)(=O)c1ccc(F)cc1 | inconclusive: 33.4%
15 | O=[N+]([O-])c1ccc2nc(SCc3ccccc3Cl)sc2c1 | inactive: 2.57%
16 | CCOc1cc(NC(=S)Nc2cccc(C)c2)c(OCC)cc1NC(=O)CC(C)C | inconclusive: 39.2%
17 | CCOC(=O)c1nnc2cc(-c3ccc(Br)cc3)nn2c1C | inactive: 1.62%
18 | CCOC(=O)CC(=O)CSc1nc2c(sc(=S)n2-c2ccc(OCC)cc2)c(=O)[nH]1 | inconclusive: 44.3%
19 | COc1ccc(C2C(=O)c3ccccc3C2=O)c(OC)c1 | inconclusive: 5.02%
20 | COc1cc(NS(=O)(=O)c2ccc(N)cc2)nc(OC)n1 | inconclusive: 39.3%
21 | O=C1CC(c2ccccc2)CC(O)=C1C=NCc1ccc(Cl)c(Cl)c1 (stereo not given) | inconclusive: 62%
22 | Cc1ccc(-n2nnnc2SCC(=O)c2cc(C)n(CC3CCCO3)c2C)cc1 (stereo not given) | inactive: -3.58%
23 | COc1cc(-c2nn3c(-c4ccccn4)nnc3s2)cc(OC)c1OC | inconclusive: 50.5%

Row | Structure (SMILES) | inhibition
24 | CCCC(=O)OCCNc1cc(SCc2ccco2)c2nonc2c1[N+](=O)[O-] | inconclusive: 39.4%
25 | CN(C)c1ccc(C=O)c(Oc2ccccc2)c1 | inactive: -6.28%
26 | CCN(CC)S(=O)(=O)c1cc(NC(=O)Cn2cnc3ccccc3c2=O)ccc1C | inconclusive: 36%
27 | O=C(CCN1CCN(CCO)CC1)Nc1cccc(Br)c1 | inconclusive: 41.3%
28 | CC(C)CCn1nnnc1C(c1ccccc1)N1CCC(C(N)=O)CC1 (stereo not given) | inconclusive: 32.8%
29 | C[C@]12CC[C@H]3[C@@H](CCC4=CC(=O)CC[C@@]43C)[C@@H]1CC[C@@H]2C(=O)CO | inconclusive: 41.8%
30 | Cc1ccc(C(=O)Nc2ccc(Cl)cn2)cc1S(=O)(=O)N1CCOCC1 | inconclusive: 33.9%
31 | CC(C)C(C(=O)NCc1ccco1)N(C(=O)CNS(=O)(=O)c1ccccc1)c1ccccc1 (stereo not given) | inconclusive: 36%
32 | Cc1ccnc(NC(=O)c2ccc3c(c2)OCO3)c1 | inactive: 4.65%
33 | O=C1C2C3C=CC(C3)C2C(=O)N1CNc1ccccc1 (stereo not given) | inactive: 2.49%
34 | CCOc1ccc(/C=N/NC(=O)C(OC)c2ccccc2)cc1 (stereo not given) | inactive: -8.04%
35 | CC(C)C[C@H](NC(=O)CCCn1nnc2ccccc2c1=O)C(=O)O | inconclusive: 58.6%
36 | Cc1nn(-c2ccccc2)c2c1C(c1ccccc1)C(C#N)=C(N)O2 (stereo not given) | inconclusive: 57%
37 | COC(=O)c1ccc(NC(=O)c2ccccc2)o1 | inconclusive: 51.4%
38 | CC(C)(C)c1ccc(N2C(=O)CC(C/C=C/c3ccccc3)C2=O)cc1 (stereo not given) | inactive: -5.69%
39 | Fc1ccc(C2c3[nH]c4ccccc4c3CCN2Cc2ccoc2)cc1 (stereo not given) | inconclusive: 44%
40 | Oc1c(Cl)cc(CN2CCCCC2)c2cccnc12 | inactive: 10.4%
41 | COC(=O)c1c(NC(=O)/C=C/c2ccco2)sc2c1CCC2 | inconclusive: 34.5%
42 | CCCCCCCCC(=O)N/N=C(\C)c1ccc(O)cc1O | inconclusive: 45.1%
43 | Nc1cc2nn(-c3ccccc3)nc2cc1Cl | inconclusive: 41.5%
44 | CCN(CCO)c1ccc(NC(=S)Nc2cccc(S(=O)(=O)N(C)C)c2)cc1 | inconclusive: 59.1%
45 | CCNC(=S)Nc1cccc(Cl)c1C | inconclusive: 46.5%
46 | COc1ccc(C2=CC(=O)C=CC2=O)cc1 | inconclusive: 39.1%

Copied from the list.
Entry for O=C(CCN1CCN(CCO)CC1)Nc1cccc(Br)c1 under inhibition: inconclusive: 41.3%
Entry for Nc1cc2nn(-c3ccccc3)nc2cc1Cl under inhibition: inconclusive: 41.5%
Entry for CC(C)Sc1oc(-c2ccco2)nc1S(=O)(=O)c1ccc(F)cc1 under inhibition: inconclusive: 33.4%
Entry for COc1ccc(C2C(=O)c3ccccc3C2=O)c(OC)c1 under inhibition: inconclusive: 5.02%
Entry for COc1cc(-c2nn3c(-c4ccccn4)nnc3s2)cc(OC)c1OC under inhibition: inconclusive: 50.5%

(listing goes on)

Row | Structure (SMILES) | inhibition
47 | Cc1cc(C(=O)NCc2ccco2)cs1 | inconclusive: 33.5%
48 | CCOC(=O)N1CCC(NC(=O)Cn2c3c(c(-c4ccccc4Cl)cc2=O)CCC3)CC1 | inconclusive: 53.2%
49 | O=C(COC(=O)c1ccc(NS(=O)(=O)c2cccs2)cc1)NCC1CCCO1 (stereo not given) | inactive: -1.37%
50 | O=C(COC(=O)/C=C/c1ccc(C(F)(F)F)cc1)NCCC1=CCCCC1 | inconclusive: 47.3%
51 | CCc1onc(C)c1C(=O)Nc1ccc(N2CCOCC2)cc1 | inconclusive: 40%
52 | Cn1c(SCC(=O)Nc2sc3c(c2C#N)CCC3)nnc1C1COc2ccccc2O1 (stereo not given) | inactive: 2.45% and inactive: 32%
53 | COc1ccc(O[C@H]2C=C[C@@H](c3ccccc3)O[C@@H]2COC(=O)CC/C(C)=N/O[C@H](C)c2cn([C@@H]3COC[C@H]3O)nn2)cc1 | inconclusive: 43.5%
54 | CC(C)n1c(SCC(N)=O)nc2c1c(=O)[nH]c(=O)n2C | inconclusive: 42.4%
55 | COC(=O)C1C(O)=C(C=Nc2ccc(N)cc2)C(=O)CC1(C)C (stereo not given) | inconclusive: 83.2%
56 | Cc1cccc(OCCCC(=O)Nc2ccc(S(N)(=O)=O)cc2)c1 | inconclusive: 41.2%
57 | C=CCN1C(c2ccc(OCC)cc2)=CS/C1=C(\C#N)c1nnc2n1CCCCC2 | inconclusive: 14.1%
58 | Cc1ccc(-n2nnc3c(=O)n(CC(=O)N4CCC(C)CC4)cnc32)cc1 | inconclusive: 46.7%
59 | CC(CC(=O)O)Nc1ccccc1O (stereo not given) | inconclusive: 46.4%
60 | CCOc1ccc(-c2cc(N3C(=O)Nc4ccccc4N3O)on2)cc1 | inactive: 19.2%
61 | CCOC(=O)N1CCN(C(=O)CN(CC)S(=O)(=O)c2cc(C)ccc2OC)CC1 | inactive: -2.01%
62 | COC(=O)c1ccc(CSc2nc3c(cnn3-c3ccc(F)cc3)c(=O)[nH]2)o1 | inconclusive: 33.1%
63 | CCOC(=O)c1c(N)sc2c1CCCC2=O | inconclusive: 38.2%
64 | CC(C)(C)c1cnnn1-c1cccc([N+](=O)[O-])c1 | inconclusive: 39.3%
65 | CCOC(=O)C1=C(C)NC2=C(C(=O)CC(C)(C)C2)C1c1cccc(C)n1 (stereo not given) | inconclusive: 45.4%
66 | COc1cccc(OC)c1C(=O)N1CCN(Cc2ccccc2C)CC1 | inconclusive: 54.1%
67 | Nc1ccc(NC2C[C@@H](C(=O)O)NC2=O)cc1 (stereo not given in full) | inconclusive: 37%
68 | O=C(NCCN1CCOCC1)c1ccc2c(c1)N(Cc1ccc(Cl)cc1)CCS2 | inconclusive: 49%
69 | Cc1ccc(-n2c(C(C)n3nc(C)c([N+](=O)[O-])c3C)n[nH]c2=S)cc1 (stereo not given) | inconclusive: 47.2%

Row | Structure (SMILES) | inhibition
70 | Cc1ccc(C(=O)CSc2ncn[nH]2)cc1 | inconclusive: 48.2%
71 | CN1CCN(c2nc3c(c(=O)n(C)c(=O)n3C)n2CC(N)=O)CC1 | inconclusive: 40.4%
72 | CCOC(=O)C1=C(C)NC(C)=C(C(=O)OCC)C1c1ccc(O)cc1 | inconclusive: 50.3%
73 | CC(Oc1ccccc1)C(=O)N1CCCc2ccccc21 (stereo not given) | inconclusive: 51.6%
74 | CCc1ccc(NC(=O)c2cc(-c3ccc(F)cc3)on2)cc1 | inconclusive: 57.8%
75 | CCOc1cc(N2CCOCC2)c(OCC)cc1NC(C)C(=O)N1CCC(C)CC1 (stereo not given) | inconclusive: 52.4%
76 | CCC(=O)n1nc(-c2ccc(Cl)cc2)nc1SC | inconclusive: 41.7%
77 | COc1ccc(OC)c(C2C(C(=O)c3cccs3)=C(O)C(=O)N2CCN(C)C)c1 (stereo not given) | inactive: 0.56%
78 | CCOC(=O)N1CCN(C(=O)CSc2ncnc3ccccc23)CC1 | inconclusive: 29.2%
79 | CCOC(=O)N=S(N)(=O)c1ccc(Cl)cc1 (stereo not given) | inconclusive: 41.4%
80 | CCCCn1c(NC(=O)c2ccc(Br)o2)c(S(=O)(=O)c2ccccc2)c2nc3ccccc3nc21 | inconclusive: 55%
81 | COC(=O)c1c(C)[nH]c(C(=O)OC(C)C(=O)NC2CCCCC2C)c1C (stereo not given) | inconclusive: 33%
82 | Cc1ccc(CSCCNC(=O)CCSc2ccccc2)cc1 | inconclusive: 36.5%
83 | CCOc1ccc(NC(=O)C(=O)NCC2CCCN2CC)cc1 (stereo not given) | inconclusive: 20.7%
84 | O=C(Nc1ccc(Cl)cc1)C(c1ccccc1)N(CCO)CCO (stereo not given) | inactive: -1.42%
85 | Cc1cccc(-c2nc(CN3CCCC(C(=O)NC4CCC(C)CC4)C3)c(C)o2)c1 (stereo not given) | inconclusive: 37.6%
86 | O=C(Nc1cc(S(=O)(=O)N2CCOCC2)ccc1N1CCOCC1)c1cn2ccccc2n1 | inconclusive: 35.2%
87 | O=C(COC(=O)Cc1ccc(F)cc1)Nc1cc(S(=O)(=O)N2CCOCC2)ccc1N1CCCC1 | inconclusive: 40.5%
88 | c1coc(CN(Cc2ccco2)c2ncnc3c2oc2ccccc23)c1 | inconclusive: 41%
89 | COc1ccc(C2c3c(oc4ccc(Cl)cc4c3=O)C(=O)N2Cc2ccco2)cc1OC (stereo not given) | inconclusive: 52.9%
90 | CC(=O)c1ccc(Oc2nc3c(c(=O)n(C)c(=O)n3C)n2C)cc1 | inconclusive: 57.5%
